Source: US9888688B2, “Tetrazolinone compounds and applications thereof” (Sumitomo Chemical Company, Limited, priority 2013, dated 2018)
Some entries share one result that the patent states for a list of compounds. For some of these results: At least one compound was matched to its structure with a doubt left.

Assays:
Type in all cases: in vivo
[1] = test system: barley net blotch fungus (Pyrenophora teres); assay: Barley net blotch control test, foliar spray on barley (Test Examples 4, 16, 17, 18); conditions: barley NISHINOHOSHI, inoculated after 2 days
[2] = test system: kidney bean stem rot fungus (Sclerotinia sclerotiorum); assay: Kidney bean stem rot control test, foliar spray on kidney bean (Test Examples 5, 22, 23); conditions: kidney bean NAGAUZURA NATANE, four days after inoculation
[3] = test system: wheat leaf blotch fungus (Septoria tritici); assay: Wheat leaf blotch control test, spray before inoculation (Test Examples 6, 9, 10, Comparative Test Example); conditions: wheat APOGEE, inoculated after 4 days
[4] = test system: barley scald fungus (Rhynchosporium secalis); assay: Barley scald control test, foliar spray on barley (Test Examples 20, 21); conditions: barley NISHINOHOSHI, inoculated after 2 days
[5] = test system: cucumber corynespora leaf spot fungus (Corynespora cassicola); assay: Cucumber corynespora leaf spot control test (Test Examples 26, 27); conditions: cucumber SAGAMI HANJIRO, inoculated after one day, 7 days
[6] = test system: cucumber anthracnose fungus (Colletotrichum lagenarium); assay: Cucumber anthracnose control test (Test Examples 28, 29); conditions: cucumber SAGAMI HANJIRO, inoculated after one day

Measured: area of lesion spots relative to that on an untreated plant

Cc1cc(-c2ncccn2)ccc1OCc1c(C)cccc1-n1nnn(C)c1=O [Present Compound 83]
≤ 30%: [1]; 200 ppm foliar spray | [1]; 500 ppm foliar spray | [2]; 200 ppm foliar spray | [2]; 500 ppm foliar spray | [3]; 200 ppm foliar spray | [3]; 500 ppm foliar spray | [4]; 200 ppm foliar spray | [5]; 200 ppm foliar spray | [6]; 50 ppm foliar spray

Cc1cc(-c2ccccn2)c(Cl)cc1OCc1ccccc1-n1nnn(C)c1=O [Present Compound 214]
≤ 30%: [1]; 200 ppm foliar spray | [1]; 500 ppm foliar spray | [2]; 500 ppm foliar spray | [3]; 200 ppm foliar spray | [3]; 500 ppm foliar spray | [4]; 200 ppm foliar spray | [5]; 200 ppm foliar spray | [6]; 200 ppm foliar spray

COc1cccc(-n2nnn(C)c2=O)c1COc1cc(C)c(-c2ccc(F)cn2)cc1C [Present Compound 218]
≤ 30%: [1]; 500 ppm foliar spray | [2]; 200 ppm foliar spray | [2]; 500 ppm foliar spray | [3]; 500 ppm foliar spray | [5]; 200 ppm foliar spray | [6]; 200 ppm foliar spray

Cc1cnc(-c2cc(C)c(OCc3c(C)cccc3-n3nnn(C)c3=O)cc2C)nc1 [Present Compound 239]
≤ 30%: [2]; 200 ppm foliar spray | [2]; 500 ppm foliar spray | [5]; 200 ppm foliar spray | [6]; 200 ppm foliar spray

Cc1cc(-c2cccc(Cl)n2)c(C)cc1OCc1ccccc1-n1nnn(C)c1=O [Present Compound 175]
≤ 30%: [1]; 200 ppm foliar spray | [1]; 500 ppm foliar spray | [2]; 200 ppm foliar spray | [2]; 500 ppm foliar spray | [3]; 200 ppm foliar spray | [4]; 200 ppm foliar spray | [5]; 200 ppm foliar spray | [6]; 200 ppm foliar spray

C#CCOc1ccc(-c2ccc(OCc3c(C)cccc3-n3nnn(C)c3=O)c(C)c2)nn1 [Present Compound 104, 1-{3-methyl-2-[2-methyl-4-(6-propargyloxypyridazin-3-yl)-phenoxymethyl]-phenyl}-4-methyl-1,4-dihydrotetrazol-5-one]
≤ 30%: [1]; 50 ppm foliar spray | [2]; 200 ppm foliar spray | [3]; 50 ppm foliar spray | [4]; 50 ppm foliar spray | [5]; 200 ppm foliar spray | [6]; 200 ppm foliar spray

Cc1cccc(-c2ccc(OCc3c(C)cccc3-n3nnn(C)c3=O)c(Cl)c2)n1 [Present Compound 57]
≤ 30%: [1]; 200 ppm foliar spray | [1]; 500 ppm foliar spray | [2]; 200 ppm foliar spray | [2]; 500 ppm foliar spray | [3]; 200 ppm foliar spray | [3]; 500 ppm foliar spray | [4]; 200 ppm foliar spray | [5]; 200 ppm foliar spray | [6]; 200 ppm foliar spray

Cc1cccc(-c2cc(C)c(OCc3c(C)cccc3-n3nnn(C)c3=O)cc2C)n1 [Present Compound 240]
≤ 30%: [2]; 200 ppm foliar spray | [5]; 200 ppm foliar spray | [6]; 200 ppm foliar spray

Cc1ccc(-c2ccc(OCc3c(C4CC4)cccc3-n3nnn(C)c3=O)c(C)c2)nn1 [Present Compound 225]
≤ 30%: [2]; 200 ppm foliar spray | [2]; 500 ppm foliar spray | [5]; 200 ppm foliar spray | [6]; 200 ppm foliar spray

Cc1ccc(-c2ccc(OCc3c(Cl)cccc3-n3nnn(C)c3=O)c(C)c2)nn1 [Present Compound 224]
≤ 30%: [2]; 200 ppm foliar spray | [5]; 200 ppm foliar spray | [6]; 200 ppm foliar spray

Cc1ccc(-c2cc(C)c(OCc3c(Cl)cccc3-n3nnn(C)c3=O)cc2C)nc1 [Present Compound 180]
≤ 30%: [2]; 200 ppm foliar spray | [2]; 500 ppm foliar spray | [3]; 200 ppm foliar spray | [3]; 500 ppm foliar spray | [4]; 200 ppm foliar spray | [5]; 200 ppm foliar spray | [6]; 200 ppm foliar spray

CCc1cccc(-n2nnn(C)c2=S)c1COc1ccc(-c2nccc(C)n2)cc1C [Present Compound 249, 1-{3-ethyl-2-[2-methyl-4-(6-methylpyrimidin-2-yl)-phenoxymethyl]-phenyl}-4-methyl-1,4-dihydrotetrazole-5-thione]
≤ 30%: [2]; 200 ppm foliar spray | [2]; 500 ppm foliar spray | [5]; 200 ppm foliar spray | [6]; 200 ppm foliar spray

COc1cccc(-n2nnn(C)c2=O)c1COc1ccc(-c2ccc(C)nn2)cc1C [Present Compound 226]
≤ 30%: [2]; 200 ppm foliar spray | [2]; 500 ppm foliar spray | [5]; 200 ppm foliar spray | [6]; 200 ppm foliar spray

Cc1cc(-c2ncccc2C#N)c(C)cc1OCc1c(C)cccc1-n1nnn(C)c1=O [Present Compound 161]
≤ 30%: [1]; 200 ppm foliar spray | [1]; 500 ppm foliar spray | [3]; 200 ppm foliar spray | [3]; 500 ppm foliar spray | [4]; 200 ppm foliar spray | [5]; 200 ppm foliar spray | [6]; 200 ppm foliar spray

Cc1cccc(-c2ccc(OCc3ccccc3-n3nnn(C)c3=O)c(C(F)(F)F)c2)n1 [Present Compound 127]
≤ 30%: [1]; 200 ppm foliar spray | [1]; 500 ppm foliar spray | [2]; 200 ppm foliar spray | [2]; 500 ppm foliar spray | [4]; 200 ppm foliar spray | [5]; 50 ppm foliar spray | [6]; 200 ppm foliar spray

Cc1ccc(Cl)c(-c2ccc(OCc3c(C)cccc3-n3nnn(C)c3=O)c(C)c2)n1 [Present Compound 145]
≤ 30%: [1]; 500 ppm foliar spray | [2]; 200 ppm foliar spray | [2]; 500 ppm foliar spray | [3]; 500 ppm foliar spray | [5]; 50 ppm foliar spray | [6]; 50 ppm foliar spray

Cc1ccnc(-c2ccc(OCc3ccccc3-n3nnn(C)c3=O)c(C)c2)n1 [Present Compound 95]
≤ 30%: [1]; 200 ppm foliar spray | [2]; 200 ppm foliar spray | [4]; 200 ppm foliar spray | [5]; 200 ppm foliar spray | [6]; 50 ppm foliar spray
